{
  "source": "the supplement of paper PMC7752906",
  "note": "Counter-ions that a name gives are not always drawn. The list shows a part of the results. Repeats in this data set agree poorly, so a single value says little.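 Test system: Schistosoma mansoni schistosomula, roughly 40 per well, imaged in bright field over time and compared with wells given 0.1% DMSO. Distance read-out: the paper calls a drug a hit when its Mahalanobis distance is at least 2.47, three standard deviations above the DMSO control mean. Degeneracy is the share of worms classified opaque.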 Bridge positions count the residues as written; N and C are the ends. Square brackets hold non-standard residues; d marks the D form. Peptide text beside a SMILES is read from it. * marks the point of attachment. Ileψ(thiazoline)Cys = CC[C@H](C)[C@H](N)C1=N[C@H](C(=O)*)CS1; dOrn = NCCC[C@@H](N)C(=O)O",
  "data": [
    {"test_system": "Schistosoma mansoni schistosomula", "assay": "degeneracy (percent of somules classified as degenerate/opaque); higher = more parasite degeneration/death; extreme values may be limits of the assay", "details": "10 µM; 72 h", "units": {"degeneracy": "%"}, "values": [
      {"compound": "CCC[C@@H]1C[C@@H](C(=O)N[C@@H]([C@H]2O[C@H](SC)[C@H](O)[C@@H](O)[C@H]2O)[C@H](C)Cl)N(C)C1", "note": "[Clindamycin Hydrochloride]", "degeneracy": 3.57},
      {"compound": "C[n+]1c2cc(N)ccc2cc2ccc(N)cc21", "note": "[Acriflavinium Hydrochloride]", "degeneracy": 100},
      {"compound": "C=C1/C(=C\\C=C2/CCC[C@]3(C)[C@@H]([C@H](C)CCCC(C)C)CC[C@@H]23)C[C@@H](O)C[C@@H]1O", "note": "[Alfacalcidol]", "degeneracy": 1.72},
      {"compound": "CC(C)(CO)C(O)C(=O)NCCCO", "note": "(stereo unspecified) [Panthenol]", "degeneracy": 12.5},
      {"compound": "CCOc1ccc2ccccc2c1C(=O)N[C@@H]1C(=O)N2[C@@H]1SC(C)(C)[C@@H]2C(=O)O", "note": "[Nafcillin Sodium]", "degeneracy": 6.25},
      {"compound": "Cn1cnc2c1c(=O)[nH]c(=O)n2C", "note": "[Theobromine]", "degeneracy": 6.67},
      {"compound": "OCc1cccnc1", "note": "[Nicotinyl Alcohol Tartrate]", "degeneracy": 4.76},
      {"compound": "CN(C)CCC=C1c2ccccc2COc2ccccc21", "note": "[Doxepin]", "degeneracy": 20.5},
      {"compound": "CN(C)CCC=C1c2ccccc2COc2ccccc21", "note": "[Doxepin Hydrochloride]", "degeneracy": 20},
      {"compound": "CN1[C@@H]2CC[C@H]1C[C@@H](OC(=O)c1c[nH]c3ccccc13)C2", "note": "[Tropisetron]", "degeneracy": 7.69},
      {"compound": "Cc1cccc(C)c1OCC(C)N", "note": "(stereo unspecified) [Mexiletine]", "degeneracy": 2.17},
      {"compound": "NC[C@@H]1O[C@H](O[C@H]2[C@@H](O)[C@H](O[C@@H]3[C@@H](O)[C@H](N)C[C@H](N)[C@H]3O[C@H]3O[C@H](CO)[C@@H](O)[C@H](O)[C@H]3N)O[C@@H]2CO)[C@H](N)[C@@H](O)[C@@H]1O", "note": "[Paromomycin Sulfate]", "degeneracy": 3.64},
      {"compound": "CC[C@]1(O)C[C@H]2CN(CCc3c([nH]c4ccccc34)[C@@](C(=O)OC)(c3cc4c(cc3OC)N(C=O)[C@H]3[C@@](O)(C(=O)OC)[C@H](OC(C)=O)[C@]5(CC)C=CCN6CC[C@]43[C@@H]65)C2)C1", "note": "[Vincristine]", "degeneracy": 20.8},
      {"compound": "Cc1c(N(C)C)c(=O)n(-c2ccccc2)n1C", "note": "[Aminopyrine]", "degeneracy": 6.98},
      {"compound": "CCN(CC)CCNC(=O)c1c(C)[nH]c(/C=C2\\C(=O)Nc3ccc(F)cc32)c1C", "note": "[Sunitinib Malate]", "degeneracy": 100},
      {"compound": "CN(C)C(=O)C(CCN1CCC(O)(c2ccc(Cl)cc2)CC1)(c1ccccc1)c1ccccc1", "note": "[Loperamide]", "degeneracy": 46.7},
      {"compound": "CO/N=C(\\C(=O)N[C@@H]1C(=O)N2C(C(=O)O)=C(CSc3nnnn3C)CS[C@H]12)c1csc(N)n1", "note": "[Cefmenoxime Hydrochloride]", "degeneracy": 18.2},
      {"compound": "C[C@H]1O[C@@H](O[C@H]2[C@@H](O)C[C@H](O[C@H]3[C@@H](O)C[C@H](O[C@H]4CC[C@@]5(C)[C@H](CC[C@@H]6[C@@H]5C[C@@H](O)[C@]5(C)[C@@H](C7=CC(=O)OC7)CC[C@]65O)C4)O[C@@H]3C)O[C@@H]2C)C[C@H](O)[C@@H]1O", "note": "[Digoxin]", "degeneracy": 100},
      {"compound": "C[C@H](CCC(=O)O)[C@H]1CC[C@H]2[C@@H]3[C@H](O)C[C@@H]4C[C@H](O)CC[C@]4(C)[C@H]3C[C@H](O)[C@]12C", "note": "[Cholic Acid]", "degeneracy": 12.8},
      {"compound": "Cc1c(OCC(F)(F)F)ccnc1C[S@@+]([O-])c1nc2ccccc2[nH]1", "note": "[Dexlansoprazole]", "degeneracy": 5},
      {"compound": "O=C(OCC(O)CO)c1ccccc1Nc1ccnc2cc(Cl)ccc12", "note": "(stereo unspecified) [Glafenine]", "degeneracy": 13.6},
      {"compound": "Nc1nc2ccc(OC(F)(F)F)cc2s1", "note": "[Riluzole]", "degeneracy": 39.5},
      {"compound": "O=C(C1CCCCC1)N1CC(=O)N2CCc3ccccc3C2C1", "note": "(stereo unspecified) [praziquantel]", "degeneracy": 77.8},
      {"compound": "COc1ccc2c(c1OC)C(=O)O[C@@H]2[C@H]1c2c(cc3c(c2OC)OCO3)CCN1C", "note": "[Noscapine Hydrochloride]", "degeneracy": 3.03},
      {"compound": "CCOC(=O)O[C@]1(C(=O)COC(=O)CC)CC[C@H]2[C@@H]3CCC4=CC(=O)C=C[C@]4(C)[C@H]3[C@@H](O)C[C@@]21C", "note": "[Prednicarbate]", "degeneracy": 6.06},
      {"compound": "CC(C)(C)NCC(O)COc1cccc2c1CCC(=O)N2", "note": "(stereo unspecified) [Carteolol Hydrochloride]", "degeneracy": 3.12},
      {"compound": "CC(S)C(=O)NCC(=O)O", "note": "(stereo unspecified) [Tiopronin]", "degeneracy": 3.03},
      {"compound": "COc1ccc(OC)c(C(O)CNC(=O)CN)c1", "note": "(stereo unspecified) [Midodrine]", "degeneracy": 0},
      {"compound": "CN1CCN(CCCN2c3ccccc3Sc3ccc(C(F)(F)F)cc32)CC1", "note": "[trifluoperazine]", "degeneracy": 100},
      {"compound": "OC(CNCC(O)C1CCc2cc(F)ccc2O1)C1CCc2cc(F)ccc2O1", "note": "(stereo unspecified) [Nebivolol Hydrochloride]", "degeneracy": 8.11},
      {"compound": "CC[C@H](C)[C@H](N)C1=N[C@H](C(=O)N[C@@H](CC(C)C)C(=O)N[C@H](CCC(=O)O)C(=O)N[C@H](C(=O)N[C@H]2CCCCNC(=O)[C@H](CC(N)=O)NC(=O)[C@@H](CC(=O)O)NC(=O)[C@H](Cc3cnc[nH]3)NC(=O)[C@@H](Cc3ccccc3)NC(=O)[C@H]([C@@H](C)CC)NC(=O)[C@@H](CCCN)NC2=O)[C@@H](C)CC)CS1", "note": "[Bacitracin] ({Ileψ(thiazoline)Cys}-L[dE]IK[dOrn]I[dF]H[dD]N; lactam 4-C)", "degeneracy": 3.85},
      {"compound": "CC(=O)NS(=O)(=O)c1ccc(NC(=O)c2ccccc2C(=O)O)cc1", "note": "[Phthalylsulfacetamide]", "degeneracy": 7.14},
      {"compound": "CN(C)CCOC(C)(c1ccccc1)c1ccccn1", "note": "(stereo unspecified) [Doxylamine Succinate]", "degeneracy": 7.14},
      {"compound": "C=CCNC(N)=S", "note": "[Allylthiourea]", "degeneracy": 0},
      {"compound": "Oc1c(I)cc(Cl)c2cccnc12", "note": "[Clioquinol]", "degeneracy": 100},
      {"compound": "CN(C(=O)C(Cl)Cl)c1ccc(OC(=O)c2ccco2)cc1", "note": "[Diloxanide Furoate]", "degeneracy": 5.41},
      {"compound": "Cc1cc2c(cc1S(N)(=O)=O)S(=O)(=O)CCC2", "note": "[Meticrane]", "degeneracy": 14.3},
      {"compound": "CC1(C)S[C@@H]2[C@H](NC(=O)[C@H](NC(=O)N3CCNC3=O)c3ccccc3)C(=O)N2[C@H]1C(=O)O", "note": "[Azlocillin]", "degeneracy": 0},
      {"compound": "CC(C)c1ccc2oc3nc(N)c(C(=O)O)cc3c(=O)c2c1", "note": "[Amlexanox]", "degeneracy": 4.44},
      {"compound": "NC(=O)c1cc[n+](CC2=C(C(=O)O)N3C(=O)[C@@H](NC(=O)[C@@H](c4ccccc4)S(=O)(=O)[O-])[C@H]3SC2)cc1", "note": "[Cefsulodin Sodium]", "degeneracy": 0},
      {"compound": "COC(=O)Nc1nc2cc(C(=O)c3ccccc3)ccc2[nH]1", "note": "[Mebendazole]", "degeneracy": 5.71},
      {"compound": "CCCCCCc1ccc(O)cc1O.Nc1c2ccccc2nc2ccccc12", "note": "[Acrisorcin]", "degeneracy": 100},
      {"compound": "O=C(O)c1cccnc1Nc1cccc(C(F)(F)F)c1", "note": "[Niflumic Acid]", "degeneracy": 2.22},
      {"compound": "CC1CC(OC(=O)C(O)c2ccccc2)CC(C)(C)C1", "note": "(stereo unspecified) [Cyclandelate]", "degeneracy": 100},
      {"compound": "CC(CCc1ccccc1)NCC(O)c1ccc(O)c(C(N)=O)c1", "note": "(stereo unspecified) [Labetalol]", "degeneracy": 13.3},
      {"compound": "CCOC(=O)[C@H](CCc1ccccc1)N[C@@H](C)C(=O)N1Cc2ccccc2C[C@H]1C(=O)O", "note": "[Quinapril]", "degeneracy": 15.6},
      {"compound": "Cc1onc(-c2c(Cl)cccc2Cl)c1C(=O)N[C@@H]1C(=O)N2[C@@H]1SC(C)(C)[C@@H]2C(=O)O", "note": "[Dicloxacillin Sodium]", "degeneracy": 13},
      {"compound": "CN1C(C)(C)CCCC1(C)C", "note": "[Pempidine Tartrate]", "degeneracy": 6.06},
      {"compound": "CC[N+](C)(C)Cc1ccccc1Br", "note": "[Bretylium Tosylate]", "degeneracy": 0},
      {"compound": "CC(C)(C(=O)O)c1ccc(C(O)CCCN2CCC(C(O)(c3ccccc3)c3ccccc3)CC2)cc1", "note": "(stereo unspecified) [Fexofenadine]", "degeneracy": 5.41},
      {"compound": "CN(C)CCCN1c2ccccc2Sc2ccccc21", "note": "[Promazine]", "degeneracy": 100},
      {"compound": "CC(C(=O)O)c1ccc2c(c1)Cc1cccnc1O2", "note": "(stereo unspecified) [Pranoprofen]", "degeneracy": 4.17},
      {"compound": "Cc1c(C)c2c(c(C)c1O)CCC(C)(COc1ccc(CC3SC(=O)NC3=O)cc1)O2", "note": "(stereo unspecified) [Troglitazone]", "degeneracy": 100},
      {"compound": "Oc1ncnc2[nH]ncc12", "note": "[Allopurinol]", "degeneracy": 0},
      {"compound": "CCOC(=O)C1=C[C@@H](OC(CC)CC)[C@H](NC(C)=O)[C@@H](N)C1", "note": "[Oseltamivir]", "degeneracy": 4.76},
      {"compound": "C[C@]12CCC(=O)C=C1CC[C@@H]1[C@@H]2[C@@H](O)C[C@@]2(C)[C@H]1CC[C@]2(O)C(=O)CO", "note": "[Hydrocortisone]", "degeneracy": 5.41},
      {"compound": "Cc1onc(-c2ccccc2)c1-c1ccc(S(N)(=O)=O)cc1", "note": "[Valdecoxib]", "degeneracy": 3.57},
      {"compound": "CN(N=O)C(=O)N[C@H]1C(O)O[C@H](CO)[C@@H](O)[C@@H]1O", "note": "(mixture of isomers) [Streptozosin]", "degeneracy": 14.3},
      {"compound": "O=C(OC[C@H]1O[C@@H](OC(=O)c2cc(O)c(O)c(OC(=O)c3cc(O)c(O)c(O)c3)c2)[C@H](OC(=O)c2cc(O)c(O)c(OC(=O)c3cc(O)c(O)c(O)c3)c2)[C@@H](OC(=O)c2cc(O)c(O)c(OC(=O)c3cc(O)c(O)c(O)c3)c2)[C@@H]1OC(=O)c1cc(O)c(O)c(OC(=O)c2cc(O)c(O)c(O)c2)c1)c1cc(O)c(O)c(OC(=O)c2cc(O)c(O)c(O)c2)c1", "note": "[Tannic Acid]", "degeneracy": 100},
      {"compound": "Fc1ccc(C(c2ccc(F)cc2)N2CCN(C/C=C/c3ccccc3)CC2)cc1", "note": "[flunarizine]", "degeneracy": 26.3},
      {"compound": "CN1CCc2c(c3ccccc3n2Cc2ccccc2)C1", "note": "[Mebhydrolin Naphthalenesulfonate]", "degeneracy": 72},
      {"compound": "Cc1ccc(Nc2c(F)cccc2Cl)c(CC(=O)O)c1", "note": "[Lumiracoxib]", "degeneracy": 5},
      {"compound": "Cc1ccc2c(Br)cc(Br)c(OC(=O)c3ccccc3)c2n1", "note": "[broxaldine]", "degeneracy": 100},
      {"compound": "CN[C@@H]1[C@H](O[C@H]2[C@H](O[C@H]3[C@H](O)[C@@H](O)[C@H](N=C(N)N)[C@@H](O)[C@@H]3N=C(N)N)O[C@@H](C)[C@]2(O)C=O)O[C@@H](CO)[C@H](O)[C@H]1O", "note": "[Streptomycin Sulfate]", "degeneracy": 6.45},
      {"compound": "Nc1nc(Cl)nc2c1ncn2[C@H]1C[C@H](O)[C@@H](CO)O1", "note": "[Cladribine]", "degeneracy": 0},
      {"compound": "OCCOCCN1CCN(C2=Nc3ccccc3Sc3ccccc32)CC1", "note": "[Quetiapine]", "degeneracy": 5.71}
    ]}
  ]
}
